Percent effect of library compounds

Protein sequences, listed by entry. Tags and fused reporters are not part of them. Residues count along the entry.
UniProt Q4DA54, 1-478: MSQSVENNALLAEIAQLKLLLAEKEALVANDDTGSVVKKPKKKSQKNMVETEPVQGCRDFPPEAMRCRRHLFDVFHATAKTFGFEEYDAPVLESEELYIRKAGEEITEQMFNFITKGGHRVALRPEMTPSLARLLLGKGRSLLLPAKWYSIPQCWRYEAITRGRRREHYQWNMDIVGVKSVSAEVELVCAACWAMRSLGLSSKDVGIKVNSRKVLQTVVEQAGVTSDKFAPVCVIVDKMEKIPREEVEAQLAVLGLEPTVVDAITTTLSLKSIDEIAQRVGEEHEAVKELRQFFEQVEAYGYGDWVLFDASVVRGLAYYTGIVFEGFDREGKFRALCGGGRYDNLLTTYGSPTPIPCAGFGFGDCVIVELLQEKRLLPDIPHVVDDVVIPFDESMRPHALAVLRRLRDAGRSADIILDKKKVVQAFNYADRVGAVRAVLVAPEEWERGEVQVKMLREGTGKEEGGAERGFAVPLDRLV

Each number is a percent effect as filed. How 0% and 100% were set is not recorded. Most values in the screen are low, and negative values occur. Compounds were drawn at random from those tested, without regard to their results.

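Histidine-tRNA ligase, Trypanosoma cruzi CL Brener (UniProt Q4DA54). Enzyme assay of histidyl-tRNA synthetase; the read-out is not stated. Tested at 30 µM. Higher reads as stronger inhibition (inferred: compounds with an IC50 in retests scored well above the rest). Of about 69,000 compounds tested this way, about 31 (0.045%) reached 50% or more in at least one test.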

| # | structure | Percent Effect |
|---|---|---|
| 1 | `CCNC(=O)COc1cc(CC)c2c(C)nn(-c3ccc(C)cc3)c2n1` | 5% |
| 2 | `Cc1csc(CN2CC[C@H]3C[C@H](C)O[C@@H]3C2)n1` | 1.754% |
| 3 | `CCc1c(C(=O)O)nnn1-c1cccc(C)c1C` | 10.89% |
| 4 | `Cc1nnc2n1CCN(CC(=O)NC(C)c1ccc3ccccc3c1)C2` (configuration not stated) | 3.797% |
| 5 | `Fc1ccccc1-c1cccc(C2CCCN(C3CCOCC3)C2)n1` (configuration not stated) | 3.788% |
| 6 | `COc1ccc(CNCc2c(C(C)C)nn(C)c2OC)cn1` | 3.55% |
| 7 | `Cc1ccc(NC2CCN(C(=O)CCc3ccsc3)CC2)nn1` | 5.143% |
| 8 | `O=C(NCC(=O)N1CCC2(CC1)OCCO2)c1ccoc1` | 4.274% |
| 9 | `CN(CC(=O)N1CCCCC1Cn1cccn1)C1CC1` (configuration not stated) | 1.143% |
| 10 | `COc1cc(C(=O)N(Cc2ccco2)C2CC2)cc(OC)c1OC` | -3.333% |
| 11 | `COCc1nc(N(C)C)ncc1C(=O)NC(C)C` | 3.825% |
| 12 | `CN(CCCc1cc(-c2ccc(F)cc2)n(C)n1)CC(N)=O` | 11.88% |
| 13 | `Cn1cnnc1CN1CCC2(CCCN(C3CCCC3)C2=O)C1` (configuration not stated) | 4.02% |
| 14 | `c1cnc(N2C[C@H](OCC3CCOCC3)[C@H]3COC[C@H]32)nc1` | 6.329% |
| 15 | `Cc1nnc(N2CCOC(CN(C)C)C2)c(C#N)c1C` (configuration not stated) | 4.734% |
| 16 | `CCc1cnc(C)nc1NC(CC)c1ncnn1CC` (configuration not stated) | 4.372% |
| 17 | `CCC(C)N(Cc1cnc(NCC(=O)O)nc1)Cc1ccsc1` (configuration not stated) | 6.438% |
| 18 | `Cc1cc(C)n(CC2CCCN2CC(=O)Nc2nnc(C)s2)n1` (configuration not stated) | 4.082% |
| 19 | `CCS(=O)(=O)N1C[C@@H](OCc2cccnc2)[C@H]2OCCC[C@H]21` | 9.29% |
| 20 | `O=C(NCCNc1ccc(C(F)(F)F)cn1)c1cncc(Br)c1` | 3.396% |
| 21 | `CNc1cc(C)nc(N2CCC3(CC2)[C@H](O)C[C@@H]3OCCO)n1` | 5.82% |
| 22 | `O=C(c1ccnnc1)N1C[C@@H]2C[C@@H](c3nc(C4CC4)cs3)O[C@@H]2C1` | 16.08% |
| 23 | `COc1c(CNC2CCCOc3ccccc32)c(C(C)C)nn1C` (configuration not stated) | 5.848% |
| 24 | `CN(C)c1ncnc2c1CCN(S(=O)(=O)c1ccccc1C(F)(F)F)C2` | 6.186% |
| 25 | `COC(=O)CN(C(=O)c1cc(C(C)C)no1)c1cccc(F)c1` | 6.186% |
| 26 | `CC(C)(C)OC(=O)NCC1CCCCN1Cc1cccc(C(N)=O)c1` (configuration not stated) | -2.326% |
| 27 | `Cc1cccnc1C(=O)N1CCCCC1c1[nH]ncc1S(C)(=O)=O` (configuration not stated) | 4.301% |
| 28 | `Cc1nc2[nH]cnc(Nc3cc(C)n(C)n3)c-2n1` | 3.727% |
| 29 | `CC(C)(O)CN1CCC(=O)N(Cc2ccco2)Cc2cc(F)ccc21` | 0% |
| 30 | `CCc1nc(CN2CCCN(C(=O)C3CCOCC3)CC2)cs1` | -0.8333% |
| 31 | `O=C(NCc1cccnc1N1CCc2ccccc2C1)c1cc(=O)[nH][nH]1` | 39.36% |
| 32 | `Cc1nc(NC(=O)N[C@H](CO)c2ccccc2)sc1C` | 3.659% |
| 33 | `Cc1cnc2[nH]c(C(F)(F)F)c(CN3CCCC(CO)C3)c2c1` (configuration not stated) | -2.326% |
| 34 | `CC(=O)N1CCC(c2nc(Cc3ccccc3)no2)C1` (configuration not stated) | 4.926% |
| 35 | `COc1ccc(OC)c(NC(=O)N2CCCC2c2ccco2)c1` (configuration not stated) | -4.348% |
| 36 | `CCn1nnc2c1C(COC)CN(Cc1ccco1)C2` (configuration not stated) | -3.333% |
| 37 | `Cc1ccn(-c2cccc(C(=O)N3CCCC(n4ccnc4C)C3)c2)n1` (configuration not stated) | 5.703% |
| 38 | `CC(=O)N1[C@H](Cn2cncn2)C[C@@H]2CN(Cc3ccncc3)CC[C@@H]21` | 4.478% |
| 39 | `CCCNC(=O)Cn1c(-n2nc(C)cc2C)nc(CCC)cc1=O` | 5.528% |
| 40 | `CC(NC(=O)N1CCCN(C)CC1)c1ccc2c(c1)OCCO2` (configuration not stated) | 0.8929% |
| 41 | `CN(C)C(CNC(=O)NCCc1cccc(O)c1)c1ccco1` (configuration not stated) | -3.39% |
| 42 | `Cn1nccc1C(=O)N1CCCC2(CCN(c3ccsc3)C2=O)C1` (configuration not stated) | 5.464% |
| 43 | `c1ccc(-n2ccnc2)c(CNCC2CNc3ccnn3C2)c1` (configuration not stated) | 0% |
| 44 | `CC(Cn1cccn1)NC(=O)N1CCN(Cc2cccnc2)CC1` (configuration not stated) | 1.901% |
| 45 | `CCC(NCc1nccn1C)c1nc(C(F)(F)F)cs1` (configuration not stated) | 4.865% |
| 46 | `O=C(c1cc(F)ccc1F)C1CCN(C(=O)c2ccccn2)CC1` | 0.3774% |
| 47 | `CCOc1ccc(NC(C)c2nnnn2-c2ccccc2)cc1CO` (configuration not stated) | 6.748% |
| 48 | `COC[C@H]1CN(CC2CC2)C(=O)[C@@H]2CCN(Cc3ccoc3)CC[C@H]12` | 3.797% |
| 49 | `CN(C)C(=O)N1Cc2nnn(CC3CC3)c2C(COCC2CC2)C1` (configuration not stated) | 2.222% |
| 50 | `Cc1nn(C)c(N2CCOCC2)c1CNC1CCc2ccccc2C1` (configuration not stated) | 6.767% |
| 51 | `CC(c1ccccn1)N(C)Cc1ccc(-n2ccnc2)cc1` (configuration not stated) | 7.463% |
| 52 | `COc1ccc(C(=O)N2CCCC(n3nc(C)nc3C)C2)c(OC)c1` (configuration not stated) | 3.429% |
| 53 | `Fc1cccnc1Oc1cc(F)c(CN2CCCC2)c(F)c1` | 12% |
| 54 | `c1cnc(N2CCCn3nnc(COCC4CC4)c3C2)nc1` | 9.816% |
| 55 | `CC(=O)NCC1CCN(c2cc(C(C)C)nc3ccnn23)CC1` | 1.02% |
| 56 | `CC(C)(C)c1nc2cc(NC(=O)Cn3ccc(=O)[nH]c3=O)ccc2o1` | 8.434% |
| 57 | `Cc1cccc(-c2cccc(CC3(C(=O)O)CCOCC3)c2)c1` | -1.064% |
| 58 | `Cc1cc(CSCc2csc(CS(C)(=O)=O)n2)no1` | 6% |
| 59 | `COc1ccccc1C(=O)Nc1cc(CC(C)C)nn1C` | 4.598% |
| 60 | `COc1ccc(C(=O)N2C[C@@H](NC(=O)N(C)C)[C@H](C(C)C)C2)c(OC)n1` | 15.08% |
| 61 | `CCN(C(=O)c1cc(C)nc2ccccc12)C1CC(=O)NC1=O` (configuration not stated) | 5.195% |
| 62 | `CCc1[nH]nc(NC(=O)c2cc[nH]n2)c1C` | 8.333% |
| 63 | `CCc1nc(CN2CCCN(C(=O)C(C)n3ccnc3)CC2)cs1` (configuration not stated) | 7.634% |
| 64 | `Cc1ccsc1C(=O)NCc1ccnc(OCC(F)(F)F)c1` | 4.142% |
| 65 | `COc1ccc(Cl)cc1-c1nc(N)nc(N(C)C)n1` | 9.278% |
| 66 | `c1cnnc(N2CCCC(NCc3ccncc3)C2)c1` (configuration not stated) | 8.403% |
| 67 | `CCc1cnc(NCC(C)Oc2cccnc2)nc1` (configuration not stated) | 3.352% |
| 68 | `CC(C)c1nc(C(=O)N(C)c2ccc(Br)cn2)cs1` | 1.97% |
| 69 | `Cc1nc(-c2ccc(C(=O)O)cc2)cc(C2CCN(C(C)C)CC2)n1` | 5.65% |
| 70 | `Cc1csc(N2CCN(C(=O)CCc3nccs3)CC2)n1` | 6.767% |
| 71 | `CCn1cnnc1C1CCN(C(=O)C(OC)c2ccccc2)CC1` (configuration not stated) | -1.132% |
| 72 | `CC(C)Cc1ncc2c(n1)CN(c1nccc(N(C)C)n1)C2` | 9.662% |
| 73 | `CCC(C)N1CCc2nc(N3CCCC3)nc(NC(C)C)c2C1` (configuration not stated) | 5.714% |
| 74 | `CCn1ccnc1CN1CCN(c2ncnc3ccccc23)CC1` | 5.946% |
| 75 | `Cc1ncc2c(n1)CN(Cc1nc(-c3ccsc3)oc1C)CC2` | 32.16% |
| 76 | `CNC(=O)NC(=O)C(C)N1CCCc2cc(OC)ccc2C1` (configuration not stated) | 9.211% |
| 77 | `O=C(c1cc(Cl)c2c(c1)OCO2)N1CCN(c2cnccn2)CC1` | 6.726% |
| 78 | `O=C(NCc1ccccn1)NC1CCOc2ccccc21` (configuration not stated) | -4.215% |
| 79 | `Cc1nc(N2CCN(C(=O)C3CC3)CC2)c2c(n1)c(C)nn2C` | 4.918% |
| 80 | `COCc1noc(-c2ccc(N(C)Cc3cc(C)no3)nc2)n1` | 0% |

For reference, 9 entries once more:

CCNC(=O)COc1cc(CC)c2c(C)nn(-c3ccc(C)cc3)c2n1 read 5%.
CC(C)(C)OC(=O)NCC1CCCCN1Cc1cccc(C(N)=O)c1 (configuration not stated) read -2.326%.
Cc1cccc(-c2cccc(CC3(C(=O)O)CCOCC3)c2)c1 read -1.064%.
c1cnc(N2CCCn3nnc(COCC4CC4)c3C2)nc1 read 9.816%.
CCn1ccnc1CN1CCN(c2ncnc3ccccc23)CC1 read 5.946%.
CN(CCCc1cc(-c2ccc(F)cc2)n(C)n1)CC(N)=O read 11.88%.
COc1ccc(C(=O)N2CCCC(n3nc(C)nc3C)C2)c(OC)c1 (configuration not stated) read 3.429%.
COc1ccccc1C(=O)Nc1cc(CC(C)C)nn1C read 4.598%.
CN(C)C(=O)N1Cc2nnn(CC3CC3)c2C(COCC2CC2)C1 (configuration not stated) read 2.222%.

From ChEMBL document CHEMBL3988442, “University of Dundee, Small-Polar-MMV Screening Library” (2021).